Consider 67 sequences from PubChem BioAssay AID1347423 (Functional Genomics Laboratory (NCATS/FGL), 2020).

Out of some 52,000 sequences screened, about 210 (0.4%) were called active.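 Rule for the calls: active = gene whose silencing raises cell survival under the drug, median off-target-corrected z-score across its silencing RNAs 2 or more; inactive = the rest.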 This is one part of the list.

The experiment can be described thus: Resistance to Poly (ADP-Ribose) Polymerase inhibitor: Gene Identification via Genome-wide siRNA Screen. The settings on record: mouse BRCA2 R2336H ES cells, olaparib, CellTiter-Glo viability; active compounds read high. Summed up: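 Mouse BRCA2 R2336H ES cells were reverse-transfected with siRNA (20 nM final), treated at 48 h with 500 nM olaparib, and read by CellTiter-Glo after 72 h. Scores: MAD-based z per siRNA, median per gene, seed off-target correction.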
(ATP-based viability assays read luminescence as a measure of living cells.)
Turning to CGAUCGUGUGGGUUAUAUCTT against Htr1f, the z-score was inactive: -0.000591.

GCACUAGAAGUGUCUUUUCTT against Pcdh21: the z-score was inactive: 0.751.

In the case of GCGACACCACUGAUGACGATT against Gga2, the z-score was inactive: -0.54.

Regarding GGGCAUGGGAUUUAAUUCUTT against Dnajc11, the z-score was inactive: -0.585.

In the case of GGAAGAAAUUCCUAAUGAATT against Igsf11, the z-score is inactive: 0.0408.

In the case of CCUGCAUACGAAGUACAUATT against Bsg, the z-score was inactive: 0.3.

Take “GGUGUACAGUAUUUUAGUUTT against 1700024K14Rik”: the z-score was inactive: 0.892.

With CCUGAACUGAAAUUCCAUGTT against Ftmt, the z-score was inactive: 0.125.

GGAGCUGAGUGAAACUCUUTT against Kcnv1: the z-score is inactive: -0.919.

As to GCAAGGCGGAGAGUAAAAGTT against MGC48079, the z-score was inactive: -1.13.

With “GGACUUUGCCCUGGAUUCUTT against 6030411K04Rik”, the z-score was inactive: -2.81.

Consider “GCACAGAUGCAAGAUAAUCTT against 1700129L13Rik”, for which the z-score is inactive: 1.22.

For GGUGGUUGUUAUUGAAAAGTT against Mical3, the z-score is inactive: 0.292.

In the case of GGCUUGUGUUUCUAUCUUUTT against Cct8, the z-score was inactive: -3.16.

For the sequence “GGUGCCUUUCUGCUUUUGATT against 9230117E20Rik”, the z-score is inactive: -1.32.

Turning to CCUUAUUUAGCUAAGCAGATT against Ran, the z-score was inactive: -3.05.

As for “CCAAUAACUACUCAUACCCTT against 1110015K06Rik”, the z-score is inactive: 0.802.

GGGUUUUUAUACUAGUUUGTT against Exosc4: the z-score is inactive: -1.42.

For GGAUCCUUAAUCGAUACACTT against Gng3, the z-score was inactive: 0.459.

In the case of GGCACACACUGAUUUUUUUTT against Cops2, the z-score was inactive: -2.58.

For CCAAAUUCAUUCUAGCUCGTT against Copeb, the z-score was inactive: 0.474.

In the case of GGUCUCUUUUUGUUGUAGUTT against AI429152, the z-score is inactive: 0.936.

Regarding CCCUCACUUAUAGAAGAUUTT against Nat2, the z-score was inactive: -0.65.

On to “CCGUAUCCAUUCUGAACGUTT against 2410081M15Rik”, for which the z-score was inactive: -0.219.

With CCAGACUUCUUGUAGUUAUTT against Tpx2, the z-score is inactive: -1.49.

Regarding GGAUUCAGCAAAUGCUUCCTT against Rcor3, the z-score was inactive: 1.88.

As to CCUCUUUCUAGAGCGCAUCTT against Kcnk12, the z-score is inactive: 0.578.

Consider GGUGACUACUACACGGACUTT against Cdkl1, for which the z-score is inactive: -0.127.

With GGUGCAUACACUGAAGGAATT against Golga2, the z-score was inactive: -0.824.

Regarding CCUUUGUCCAUGUUACCGATT against Rps14, the z-score is inactive: -3.29.

On to GGUGGUAUCGAUUUUGCUUTT against Cbx7, for which the z-score was inactive: -0.556.

GCUUAAUUCUUUUCAACGUTT against Gng2: the z-score was inactive: 0.261.

Consider GGAAAUUUGCCAACAUACUTT against Sah, for which the z-score is inactive: -1.23.

As to “GGCAAAUCCAAAGUUGUCUTT against 4921515A04Rik”, the z-score is inactive: 0.536.

Turning to CCCGCACACCAAUUUCACGTT against Rnf128, the z-score was inactive: 0.861.

Turning to GGCCAACAUCAAAAUCGCCTT against Mark4, the z-score was inactive: 0.126.

Turning to “CCAGUGGAAAUAACUUGUGTT against 2410018C17Rik”, the z-score is inactive: 1.05.

Regarding GGUUUUGACAUCACAUUCUTT against Dufd1, the z-score was inactive: -0.386.

Regarding GGAAAAGUAUCCAUGUCACTT against Impa1, the z-score was inactive: 0.589.

For the sequence GGAGACAUGAUUAAAGCUATT against Ubxd3, the z-score is inactive: -0.443.

With CCCAUCUAUUAGAAUUGAGTT against Slc4a8, the z-score is inactive: 0.994.

In the case of GGCAGCAUAAGAGCUGUUCTT against Idb3, the z-score is inactive: 0.459.

Take CCUUGGUCUGAUCGACUUGTT against Gadd45g: the z-score was inactive: 1.81.

On to GGGAGCUAUGUUGUUAAAATT against Amotl2, for which the z-score was inactive: 0.392.

Consider CGACCUGAAAGAUUCGGAATT against Ppara, for which the z-score is inactive: 0.668.

Consider GGCUCAACUUUUGUGAUUCTT against Olfr895, for which the z-score is inactive: -0.00635.

Consider CGACAUCCCAAUAAACAAGTT against Lcn3, for which the z-score is inactive: 0.561.

As to GGAAGAUAGACUUCCUCACTT against Pfdn5, the z-score is inactive: -1.14.

With GGAAAUCAAGAAGUUUGAATT against Gmds, the z-score was inactive: -0.869.

Take “GGAAUUUAAGCUGUACACATT against 1700007I06Rik”: the z-score is inactive: -0.674.

As to GGCAGGUAUGCAGUGAAGATT against Paqr9, the z-score was inactive: -0.56.

For GGAAUAAGAGGAAGGUUACTT against Nanos2, the z-score is inactive: -0.18.

On to GGGCAUCCGAAUUGACUCATT against Tmem4, for which the z-score is inactive: -0.33.

With GCUAAGCCCUACAUGACCATT against Plcb2, the z-score was inactive: 0.536.

For CCACGUAUUUAAAUAGUUCTT against Gdf3, the z-score was inactive: 0.51.

GCAGGACCACACGUAUUCATT against BC024806: the z-score was inactive: 0.746.

Take “GGUGUGACAUGGUUUGAUATT against 2610208E05Rik”: the z-score was inactive: -0.269.

As to GGACAUGGCCAGAUACUACTT against Npy, the z-score is inactive: 0.681.

Take GCGACGCAGAGUGAGAAGATT against Cdk4: the z-score is inactive: 0.65.

For the sequence CGGAGGAAUCACAAGUAUATT against Il23r, the z-score was inactive: 0.339.

For GGAUUCAAACAAUGAGCUCTT against BC049806, the z-score is inactive: 0.448.

As for “GAGCUGGAGCAAGAAUUCGTT against 4632415L05Rik”, the z-score was inactive: -1.03.

As for GGGCUGAAGAUGACUUCAATT against Topors, the z-score was inactive: -1.22.

With GGACAGCAGAAGGUCUCAUTT against Pira3, the z-score is inactive: 0.227.

As for “GCCGUUCCCAUUAUCGUUUTT against A930025J12Rik”, the z-score was inactive: 0.0734.

Consider GGAAUCUCACCAAUCCAAATT against Rab14, for which the z-score is inactive: -0.329.

With GCCUCUCUAUGUGCACCACTT against V1rc19, the z-score is inactive: -0.11.
